Drawing on patent publication CN115433279A, this text covers binding for two molecules.

Sequences of proteins named here, by UniProt entry; tags and fusion partners are left off. Residues count along the entry.
UniProt P26951, residues 19-378: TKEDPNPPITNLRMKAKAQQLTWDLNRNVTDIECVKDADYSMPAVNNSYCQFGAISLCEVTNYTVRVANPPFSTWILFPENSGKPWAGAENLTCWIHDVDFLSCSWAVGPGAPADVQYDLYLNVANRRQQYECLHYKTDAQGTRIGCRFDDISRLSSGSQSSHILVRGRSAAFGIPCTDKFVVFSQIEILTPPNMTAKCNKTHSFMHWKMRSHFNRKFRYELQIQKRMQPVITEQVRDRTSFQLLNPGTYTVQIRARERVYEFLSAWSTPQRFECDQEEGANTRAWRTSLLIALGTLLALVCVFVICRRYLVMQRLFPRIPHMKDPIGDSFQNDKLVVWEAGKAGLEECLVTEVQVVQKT

These are yes or no findings as the source states them, for the method shown. Some results given as binding are weak or reduced against the parent protein; the word gives no strength.

The target in assay [1] is CD123全长蛋白 (细胞膜上CD123) (UniProt P26951). The assay can be described thus: flow cytometry on Raji cells, antibody titration.
For assay [2] the target is unchanged. The assay can be described thus: flow cytometry on 293 cells transfected with full-length CD123.

B1: 命名为1E6的兔重组单克隆抗体 (antibody, V domains shown)
VH: QSVEESGGRLVTPGTPLTLACTVSGFDISSYSMSWVRQAPGKGLEWIGSGIIGGSTYYASWAKGRFTISKTSTTVDLKITSPTTEDTATYFCARFAGTSSTDYYDLWGQGTLVTVSS
VL: TQTPSSVEAAVGGTVTIKCQASQSIDSYLAWYQQKPGQPPKLLIYDTSTLASGVSSRFKGSGSGTQFTLTISDLECADAATYYCQNYWIITTFGFGGGTEVVVK
Regarding B1, the binding result in the assay with CD123全长蛋白 (细胞膜上CD123) [1] and with CD123全长蛋白 (细胞膜上CD123) [2] was “binds” each time.

B2: 命名为5D3的兔重组单克隆抗体 (antibody, V domains shown)
VH: GGAEGGLVKPGGSLELCCKASGFSLSNLRVNWVRQAPGKGLEWIGCIISDSSGTTSYASWVNGRFTLSRDIDQNTGCLQLNSLTVADTAMYYCASRVNITSYDLSLWGQGTLVTVSS
VL: AAVLTQTPSPVSAAVGGTVSISCQSSKSVYNNKWLSWFQQKPGQPPKLLIYSASTLASGVPSRFSGSGSGTDFTLTISDVQCDDAATYYCAGGYSGSSDTYSFGGGTEVVVK
For the molecule B2, the binding entry with CD123全长蛋白 (细胞膜上CD123) [1] and with CD123全长蛋白 (细胞膜上CD123) [2] was “binds” in each case.
